{"source": "PubChem BioAssay AID1053208 (Peter MacCallum Cancer Centre, 2014)", "assay": "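Synthetic lethal interactions between gene loss and doxorubicin in osteosarcoma cells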 (primary screen)", "cells": "mouse osteosarcoma cells, early-passage culture from an engineered mouse model of fibroblastic bone tumour", "knock-down reagent": "siRNA pool against mouse genes, 40 nM", "time to read-out": "about 120 h (48 h before drug, then 72 h with drug)", "conditions": "doxorubicin 100 nM for 72 h, roughly 30-40% inhibitory dose", "measurement": "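Viability read as ATP luminescence after 72 h of 100 nM doxorubicin or none, duplicate wells averaged, scaled to non-targeting siRNA, then expressed as robust z-scores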", "scale": "viability z-score with doxorubicin: higher = more viable cells under doxorubicin; viability z-score without drug: higher = more viable cells with knock-down alone", "rule for the call": "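a pool counts as active when its viability z-score with doxorubicin is -2 or below and its z-score without drug lies between -2 and 2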", "note": "The deposit covers about 17,000 reagents; below is a random part of them. 788 of all reagents (4.7%) count as active. 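Calls rest on z-score classes alone; an extra cut-off of viability at most 70% of control was not applied to them.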 Entries without a mark were called inactive. Further read-outs or replicates are left out here. No sequences are given here."}
{"gene symbol": "Pcdh11x (protocadherin 11 X-linked)", "combined z-score class": "no change with or without drug", "viability z-score with doxorubicin": 1.01, "viability z-score without drug": 0.17}
{"gene symbol": "Ugt2a3 (UDP glucuronosyltransferase 2 family, polypeptide A3)", "combined z-score class": "no change with or without drug", "viability z-score with doxorubicin": -0.9, "viability z-score without drug": 0}
{"gene symbol": "Slc44a4", "combined z-score class": "no change with or without drug", "viability z-score with doxorubicin": -0.67, "viability z-score without drug": 1.85}
{"gene symbol": "Dnpep (aspartyl aminopeptidase)", "combined z-score class": "no change with or without drug", "viability z-score with doxorubicin": 0.9, "viability z-score without drug": 0.84}
{"gene symbol": "Rchy1 (ring finger and CHY zinc finger domain containing 1)", "combined z-score class": "no change with or without drug", "viability z-score with doxorubicin": 0.56, "viability z-score without drug": -0.34}
{"gene symbol": "Timm29 (translocase of inner mitochondrial membrane 29)", "combined z-score class": "no change with or without drug", "viability z-score with doxorubicin": 0.67, "viability z-score without drug": 0.84}
{"gene symbol": "Fbxo34 (F-box protein 34)", "combined z-score class": "no change with or without drug", "viability z-score with doxorubicin": -0.22, "viability z-score without drug": -0.51}
{"gene symbol": "Trim12a (tripartite motif-containing 12A)", "combined z-score class": "high cell count with doxorubicin only", "viability z-score with doxorubicin": 2.81, "viability z-score without drug": 1.52}
{"gene symbol": "Csmd1 (CUB and Sushi multiple domains 1)", "combined z-score class": "no change with or without drug", "viability z-score with doxorubicin": -0.79, "viability z-score without drug": -0.34}
{"gene symbol": "Prl4a1 (prolactin family 4, subfamily a, member 1)", "combined z-score class": "high cell count without drug only", "viability z-score with doxorubicin": 0.56, "viability z-score without drug": 2.19}
{"gene symbol": "Dip2b (disco interacting protein 2 homolog B)", "combined z-score class": "no change with or without drug", "viability z-score with doxorubicin": -0.45, "viability z-score without drug": -0.17}

Looked up above.
Entry for Csmd1 (CUB and Sushi multiple domains 1) in “viability z-score without drug”: -0.34
Entry for Fbxo34 (F-box protein 34) in “combined z-score class”: no change with or without drug
Entry of Prl4a1 (prolactin family 4, subfamily a, member 1) under “combined z-score class”: high cell count without drug only

Continued:
{"gene symbol": "Pde5a (phosphodiesterase 5A, cGMP-specific)", "combined z-score class": "no change with or without drug", "viability z-score with doxorubicin": -1.01, "viability z-score without drug": -1.52}
{"gene symbol": "Npas2 (neuronal PAS domain protein 2)", "combined z-score class": "no change with or without drug", "viability z-score with doxorubicin": 0.56, "viability z-score without drug": -0.84}
{"gene symbol": "Or3a1b (olfactory receptor family 3 subfamily A member 1B)", "combined z-score class": "no change with or without drug", "viability z-score with doxorubicin": 0.45, "viability z-score without drug": 0.17}
{"gene symbol": "Spaca7 (sperm acrosome associated 7)", "combined z-score class": "no change with or without drug", "viability z-score with doxorubicin": 0.45, "viability z-score without drug": 0.51}
{"gene symbol": "Mtf1 (metal response element binding transcription factor 1)", "combined z-score class": "no change with or without drug", "viability z-score with doxorubicin": 0.56, "viability z-score without drug": -0.84}
{"gene symbol": "Nadsyn1 (NAD synthetase 1)", "combined z-score class": "no change with or without drug", "viability z-score with doxorubicin": -1.46, "viability z-score without drug": -0.34}
{"gene symbol": "Rdh19 (retinol dehydrogenase 19)", "combined z-score class": "low cell count with and without drug", "viability z-score with doxorubicin": -8.32, "viability z-score without drug": -8.26}
{"gene symbol": "Nrp1 (neuropilin 1)", "combined z-score class": "no change with or without drug", "viability z-score with doxorubicin": 0, "viability z-score without drug": -0.51}
